Record: PubChem BioAssay AID1224830 (NIAID, 2016)
The whole screen tested about 18,000 reagents; this is a part drawn at random. Over the whole deposit, about 2,900 (16%) were called active. 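Calls are made per well; low scores hint the gene aids the LPS response, high scores that it dampens it.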 Reagents against one gene are numbered here. Repeated entries: four replicate wells of each siRNA pool.

Aim: 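Host factors that control LPS-induced TNF expression in human macrophages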 (primary screen)
Cells: human THP-1 monocytic leukaemia cells, TNF dual-luciferase reporter clone, PMA-differentiated to macrophage-like cells
Reagents: siRNA pool against human genes, 50 nM
Time to read-out: LPS for 4 h, given about 3 days after siRNA transfection
Conditions: bacterial LPS (TLR4 ligand), 10 ng/ml
Detection: 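Ratio of firefly to renilla light, scaled to the plate median and expressed as a robust z-score per replicate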
Direction: TNF reporter robust z-score: higher = stronger TNF reporter response to LPS
Call rule: 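Each well counts as active if its z-score is over 2.8 or under -1.5; controls are left without a call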

TNF reporter robust z-score, by gene knocked down and reagent
GYS1 (GeneID 2997): #1 0.09 inactive; #1 -0.83 inactive; #1 0.48 inactive; #1 -0.42 inactive
RAPGEF3 (GeneID 10411): #1 -1.77 active; #1 -1.68 active; #1 -1.33 inactive; #1 -1.37 inactive
C14orf184 (retired record) (GeneID 650662): #1 1.35 inactive; #1 -0.01 inactive; #1 -1.23 inactive; #1 0.93 inactive
CASP8AP2 (GeneID 9994): #1 0.67 inactive; #1 0.6 inactive; #1 0.3 inactive; #1 0.78 inactive
CCL14 (GeneID 6358): #1 -0.67 inactive; #1 1.68 inactive; #1 0.08 inactive; #1 1.29 inactive
VCX (GeneID 26609): #1 -0.78 inactive; #1 -0.55 inactive; #1 -0.1 inactive; #1 0.1 inactive
NARS2 (GeneID 79731): #1 -0.34 inactive; #1 0.15 inactive; #1 -0.55 inactive; #1 -0.36 inactive
BAX (GeneID 581): #1 -1.18 inactive; #1 -0.69 inactive; #1 -0.34 inactive; #1 0.87 inactive
PTPN13 (GeneID 5783): #1 0.01 inactive; #1 -0.63 inactive; #1 0.23 inactive; #1 0.07 inactive
KEAP1 (GeneID 9817): #1 0.31 inactive; #1 -0.47 inactive; #1 -0.52 inactive; #1 -0.18 inactive
SEC24C (GeneID 9632): #1 0.63 inactive; #1 -0.25 inactive; #1 -1.6 active; #1 -0.03 inactive
SULT1B1 (GeneID 27284): #1 0.76 inactive; #1 0.79 inactive; #1 0.17 inactive; #1 0.97 inactive
LIN9 (GeneID 286826): #1 -1.93 active; #1 -2.1 active; #1 -2.21 active
NGDN (GeneID 25983): #1 0.03 inactive; #1 -0.42 inactive; #1 -0.93 inactive; #1 -0.23 inactive
TUBB8 (GeneID 347688): #1 -0.42 inactive; #1 0.69 inactive; #1 -0.13 inactive; #1 -0.22 inactive
ANKRD20A5P (GeneID 440482): #1 0.62 inactive; #1 1.15 inactive; #1 1.43 inactive; #1 3.05 active
TMEM64 (GeneID 169200): #1 0.84 inactive; #1 1.65 inactive; #1 2.19 inactive; #1 2.97 active
ARHGEF2 (GeneID 9181): #1 -0.27 inactive; #1 -0.68 inactive; #1 -0.08 inactive; #1 0 inactive
AKT1S1 (GeneID 84335): #1 -0.17 inactive; #1 0.75 inactive; #1 0.49 inactive; #1 0.7 inactive
RSPH6A (GeneID 81492): #1 -0.23 inactive; #1 0.75 inactive; #1 -0.18 inactive; #1 1.33 inactive
PGC (GeneID 5225): #1 -0.86 inactive; #1 -0.59 inactive; #1 -0.87 inactive; #1 0.52 inactive
POLR3F (GeneID 10621): #1 -0.11 inactive; #1 2.19 inactive; #1 1.68 inactive; #1 0.98 inactive
CNNM3 (GeneID 26505): #1 -0.06 inactive; #1 0.23 inactive; #1 -0.1 inactive; #1 -0.45 inactive
ZNF501 (GeneID 115560): #1 -1.63 active; #1 -1.26 inactive; #1 -1.19 inactive; #1 -0.45 inactive
GRINA (GeneID 2907): #1 -1.31 inactive; #1 -1.22 inactive; #1 -1.42 inactive; #1 -0.78 inactive
CRB2 (GeneID 286204): #1 0.38 inactive; #1 -0.39 inactive; #1 0.62 inactive; #1 1.41 inactive
DDI2 (GeneID 84301): #1 0.33 inactive; #1 0.87 inactive; #1 1.3 inactive; #1 1.19 inactive; #2 -0.87 inactive; #2 -0.76 inactive; #2 0.1 inactive; #2 0.38 inactive
FOXD4L6 (GeneID 653404): #1 0.64 inactive; #1 2.05 inactive; #1 0.05 inactive; #1 0.01 inactive
MOB3C (GeneID 148932): #1 0.51 inactive; #1 1.47 inactive; #1 0.07 inactive; #1 1.72 inactive
KRT9 (GeneID 3857): #1 -1.54 active; #1 -1.19 inactive; #1 -1.15 inactive; #1 -1.32 inactive
DECR2 (GeneID 26063): #1 -0.52 inactive; #1 1.19 inactive; #1 0.29 inactive; #1 0.09 inactive
PCNX1 (GeneID 22990): #1 -1.01 inactive; #1 -0.41 inactive; #1 -0.3 inactive; #1 -0.31 inactive
CILP2 (GeneID 148113): #1 -0.45 inactive; #1 -0.51 inactive; #1 -0.3 inactive
NOAZFP (GeneID 27309): #1 -1.28 inactive; #1 -0.37 inactive; #1 -1.3 inactive; #1 -0.6 inactive
BPIFB2 (GeneID 80341): #1 -1.06 inactive; #1 -1 inactive; #1 -0.97 inactive; #1 -0.79 inactive

17 entries already listed, ordered by “TNF reporter robust z-score”, ascending.
gene knocked down	reagent	TNF reporter robust z-score	Call
RAPGEF3 (GeneID 10411)	1	-1.37	inactive
C14orf184 (retired record) (GeneID 650662)	1	-1.23	inactive
VCX (GeneID 26609)	1	-0.78	inactive
CCL14 (GeneID 6358)	1	-0.67	inactive
VCX (GeneID 26609)	1	-0.55	inactive
VCX (GeneID 26609)	1	-0.1	inactive
C14orf184 (retired record) (GeneID 650662)	1	-0.01	inactive
CCL14 (GeneID 6358)	1	0.08	inactive
VCX (GeneID 26609)	1	0.1	inactive
CASP8AP2 (GeneID 9994)	1	0.3	inactive
CASP8AP2 (GeneID 9994)	1	0.6	inactive
CASP8AP2 (GeneID 9994)	1	0.67	inactive
CASP8AP2 (GeneID 9994)	1	0.78	inactive
C14orf184 (retired record) (GeneID 650662)	1	0.93	inactive
CCL14 (GeneID 6358)	1	1.29	inactive
C14orf184 (retired record) (GeneID 650662)	1	1.35	inactive
CCL14 (GeneID 6358)	1	1.68	inactive
